# In publication PMC8699236:
# By UniProt entry, the sequences of proteins in these tests, tags left out. Where a name states a change or a piece, a line headed by the entry shows the natural chain unless it says otherwise.
# UniProt Q96RU7: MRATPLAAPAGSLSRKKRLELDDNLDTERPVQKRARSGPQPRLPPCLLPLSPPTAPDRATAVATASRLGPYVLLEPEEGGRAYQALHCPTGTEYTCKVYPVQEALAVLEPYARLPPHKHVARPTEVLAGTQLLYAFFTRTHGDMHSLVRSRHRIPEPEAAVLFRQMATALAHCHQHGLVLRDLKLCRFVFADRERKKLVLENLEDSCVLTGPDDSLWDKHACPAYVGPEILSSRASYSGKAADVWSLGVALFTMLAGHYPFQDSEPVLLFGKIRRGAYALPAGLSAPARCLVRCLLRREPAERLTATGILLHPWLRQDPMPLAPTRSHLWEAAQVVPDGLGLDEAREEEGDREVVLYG
# UniProt Q5TDH0: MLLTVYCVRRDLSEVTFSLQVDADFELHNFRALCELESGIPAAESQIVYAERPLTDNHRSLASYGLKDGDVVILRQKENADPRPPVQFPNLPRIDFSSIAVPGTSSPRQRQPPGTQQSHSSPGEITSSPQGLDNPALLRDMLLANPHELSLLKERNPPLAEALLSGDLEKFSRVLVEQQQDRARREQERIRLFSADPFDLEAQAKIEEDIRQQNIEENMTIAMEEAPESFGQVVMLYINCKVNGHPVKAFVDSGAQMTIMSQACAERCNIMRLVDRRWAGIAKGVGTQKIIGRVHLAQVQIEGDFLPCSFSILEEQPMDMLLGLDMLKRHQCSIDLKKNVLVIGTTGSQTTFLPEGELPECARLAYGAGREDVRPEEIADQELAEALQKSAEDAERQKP
# UniProt Q09472: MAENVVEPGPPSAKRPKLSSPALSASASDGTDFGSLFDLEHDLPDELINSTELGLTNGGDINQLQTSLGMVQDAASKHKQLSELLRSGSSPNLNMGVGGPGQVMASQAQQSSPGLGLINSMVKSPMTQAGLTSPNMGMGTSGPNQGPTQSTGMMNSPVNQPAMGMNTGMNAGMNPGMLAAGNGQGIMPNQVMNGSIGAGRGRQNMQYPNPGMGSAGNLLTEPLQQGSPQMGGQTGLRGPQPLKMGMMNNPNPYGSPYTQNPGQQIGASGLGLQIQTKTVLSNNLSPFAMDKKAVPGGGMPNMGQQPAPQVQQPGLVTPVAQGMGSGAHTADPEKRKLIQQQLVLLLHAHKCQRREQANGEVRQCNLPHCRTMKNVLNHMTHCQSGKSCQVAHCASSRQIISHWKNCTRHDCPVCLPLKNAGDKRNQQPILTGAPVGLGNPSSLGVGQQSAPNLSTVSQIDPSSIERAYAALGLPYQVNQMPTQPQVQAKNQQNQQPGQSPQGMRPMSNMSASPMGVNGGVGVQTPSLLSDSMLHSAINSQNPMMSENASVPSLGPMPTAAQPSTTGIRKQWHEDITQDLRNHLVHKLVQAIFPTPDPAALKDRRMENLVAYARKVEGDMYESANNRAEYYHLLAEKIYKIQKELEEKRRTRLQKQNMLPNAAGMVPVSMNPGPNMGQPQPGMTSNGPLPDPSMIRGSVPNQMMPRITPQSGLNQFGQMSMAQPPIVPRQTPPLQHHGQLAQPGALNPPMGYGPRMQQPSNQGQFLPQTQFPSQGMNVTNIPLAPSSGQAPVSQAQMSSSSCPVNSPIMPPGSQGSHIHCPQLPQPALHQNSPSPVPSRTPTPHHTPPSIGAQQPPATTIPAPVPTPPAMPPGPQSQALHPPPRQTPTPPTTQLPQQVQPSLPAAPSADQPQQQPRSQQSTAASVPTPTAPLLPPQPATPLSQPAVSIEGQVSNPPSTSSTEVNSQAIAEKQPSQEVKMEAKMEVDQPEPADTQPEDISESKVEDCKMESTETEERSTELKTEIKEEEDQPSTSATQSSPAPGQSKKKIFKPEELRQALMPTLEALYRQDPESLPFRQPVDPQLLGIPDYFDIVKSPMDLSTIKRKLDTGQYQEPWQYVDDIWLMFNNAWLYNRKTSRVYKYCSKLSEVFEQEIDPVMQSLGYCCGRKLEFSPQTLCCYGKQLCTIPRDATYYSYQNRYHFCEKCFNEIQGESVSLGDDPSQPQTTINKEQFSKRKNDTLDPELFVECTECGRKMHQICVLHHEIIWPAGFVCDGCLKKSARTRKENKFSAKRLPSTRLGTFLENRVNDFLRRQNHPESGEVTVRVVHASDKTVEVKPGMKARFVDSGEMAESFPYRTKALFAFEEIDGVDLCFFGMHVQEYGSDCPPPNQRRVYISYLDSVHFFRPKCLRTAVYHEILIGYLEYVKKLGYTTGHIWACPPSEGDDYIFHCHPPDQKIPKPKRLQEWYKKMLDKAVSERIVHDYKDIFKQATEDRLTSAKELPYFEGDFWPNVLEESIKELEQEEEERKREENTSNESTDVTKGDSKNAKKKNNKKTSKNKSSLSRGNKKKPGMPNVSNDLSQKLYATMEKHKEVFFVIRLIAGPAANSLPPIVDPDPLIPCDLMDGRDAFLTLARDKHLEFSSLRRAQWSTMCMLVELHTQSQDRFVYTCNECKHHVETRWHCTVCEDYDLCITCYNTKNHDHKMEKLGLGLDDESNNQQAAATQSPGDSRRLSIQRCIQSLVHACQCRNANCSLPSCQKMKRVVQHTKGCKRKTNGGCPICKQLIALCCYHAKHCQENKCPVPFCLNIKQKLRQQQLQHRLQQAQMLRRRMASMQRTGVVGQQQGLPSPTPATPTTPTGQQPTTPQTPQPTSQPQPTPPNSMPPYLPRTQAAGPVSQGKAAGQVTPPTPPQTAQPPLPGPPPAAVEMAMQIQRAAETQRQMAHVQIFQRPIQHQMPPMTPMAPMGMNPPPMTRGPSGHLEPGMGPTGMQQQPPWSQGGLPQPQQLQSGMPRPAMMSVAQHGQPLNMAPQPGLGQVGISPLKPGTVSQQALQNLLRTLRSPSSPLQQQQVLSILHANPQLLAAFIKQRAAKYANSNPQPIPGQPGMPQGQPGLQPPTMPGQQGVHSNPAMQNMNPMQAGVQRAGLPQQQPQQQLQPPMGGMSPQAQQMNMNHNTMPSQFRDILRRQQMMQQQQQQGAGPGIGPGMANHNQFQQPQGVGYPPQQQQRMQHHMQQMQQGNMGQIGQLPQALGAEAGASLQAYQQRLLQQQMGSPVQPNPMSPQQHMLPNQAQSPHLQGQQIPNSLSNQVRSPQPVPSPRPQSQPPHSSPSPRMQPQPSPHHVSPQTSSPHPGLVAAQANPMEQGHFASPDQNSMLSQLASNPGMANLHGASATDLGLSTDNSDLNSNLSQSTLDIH
# UniProt Q8IWV8: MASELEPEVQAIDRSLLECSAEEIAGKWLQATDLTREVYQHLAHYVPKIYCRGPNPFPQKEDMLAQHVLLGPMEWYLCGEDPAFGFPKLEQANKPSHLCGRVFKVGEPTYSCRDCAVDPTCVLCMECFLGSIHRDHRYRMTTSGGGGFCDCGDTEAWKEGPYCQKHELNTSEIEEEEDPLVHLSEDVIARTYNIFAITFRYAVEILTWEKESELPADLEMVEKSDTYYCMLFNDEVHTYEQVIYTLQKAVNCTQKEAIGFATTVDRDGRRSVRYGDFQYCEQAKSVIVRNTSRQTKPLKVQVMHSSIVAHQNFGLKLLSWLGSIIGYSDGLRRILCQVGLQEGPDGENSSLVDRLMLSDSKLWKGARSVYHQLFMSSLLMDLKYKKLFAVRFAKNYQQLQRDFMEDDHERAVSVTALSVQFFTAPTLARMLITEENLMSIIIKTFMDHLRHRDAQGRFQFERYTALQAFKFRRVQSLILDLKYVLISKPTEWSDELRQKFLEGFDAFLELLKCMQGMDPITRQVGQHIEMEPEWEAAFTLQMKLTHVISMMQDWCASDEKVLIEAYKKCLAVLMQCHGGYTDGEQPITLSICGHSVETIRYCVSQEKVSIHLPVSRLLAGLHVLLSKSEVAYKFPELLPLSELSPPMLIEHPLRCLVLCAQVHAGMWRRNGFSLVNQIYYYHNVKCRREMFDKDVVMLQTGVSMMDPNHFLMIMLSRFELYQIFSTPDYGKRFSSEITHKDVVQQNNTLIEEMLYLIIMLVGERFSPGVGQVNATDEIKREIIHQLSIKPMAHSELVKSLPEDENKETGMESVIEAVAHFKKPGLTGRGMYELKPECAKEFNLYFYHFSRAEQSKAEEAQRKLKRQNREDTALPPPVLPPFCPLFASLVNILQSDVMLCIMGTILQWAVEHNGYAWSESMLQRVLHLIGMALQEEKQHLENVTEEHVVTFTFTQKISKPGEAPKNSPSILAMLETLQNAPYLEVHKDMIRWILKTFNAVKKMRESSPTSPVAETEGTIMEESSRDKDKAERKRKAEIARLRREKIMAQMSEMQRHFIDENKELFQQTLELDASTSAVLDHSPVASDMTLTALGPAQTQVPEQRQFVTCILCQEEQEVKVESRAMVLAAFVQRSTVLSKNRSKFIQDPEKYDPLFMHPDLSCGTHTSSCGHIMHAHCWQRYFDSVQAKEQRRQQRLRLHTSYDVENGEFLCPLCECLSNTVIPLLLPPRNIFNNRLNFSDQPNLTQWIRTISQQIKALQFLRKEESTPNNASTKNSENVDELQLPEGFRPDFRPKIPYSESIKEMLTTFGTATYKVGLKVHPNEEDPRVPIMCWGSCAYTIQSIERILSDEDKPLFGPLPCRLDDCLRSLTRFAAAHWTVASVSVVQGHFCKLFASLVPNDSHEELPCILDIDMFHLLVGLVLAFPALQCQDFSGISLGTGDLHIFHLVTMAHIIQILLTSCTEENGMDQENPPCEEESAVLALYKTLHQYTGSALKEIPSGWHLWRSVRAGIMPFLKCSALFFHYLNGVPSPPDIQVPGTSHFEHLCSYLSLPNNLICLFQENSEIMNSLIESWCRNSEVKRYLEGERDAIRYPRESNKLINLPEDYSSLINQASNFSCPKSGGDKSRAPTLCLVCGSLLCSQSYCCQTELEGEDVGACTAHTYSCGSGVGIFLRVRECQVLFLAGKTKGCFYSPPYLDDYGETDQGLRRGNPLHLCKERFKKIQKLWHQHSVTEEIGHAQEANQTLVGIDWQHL
# UniProt Q9Y5T5: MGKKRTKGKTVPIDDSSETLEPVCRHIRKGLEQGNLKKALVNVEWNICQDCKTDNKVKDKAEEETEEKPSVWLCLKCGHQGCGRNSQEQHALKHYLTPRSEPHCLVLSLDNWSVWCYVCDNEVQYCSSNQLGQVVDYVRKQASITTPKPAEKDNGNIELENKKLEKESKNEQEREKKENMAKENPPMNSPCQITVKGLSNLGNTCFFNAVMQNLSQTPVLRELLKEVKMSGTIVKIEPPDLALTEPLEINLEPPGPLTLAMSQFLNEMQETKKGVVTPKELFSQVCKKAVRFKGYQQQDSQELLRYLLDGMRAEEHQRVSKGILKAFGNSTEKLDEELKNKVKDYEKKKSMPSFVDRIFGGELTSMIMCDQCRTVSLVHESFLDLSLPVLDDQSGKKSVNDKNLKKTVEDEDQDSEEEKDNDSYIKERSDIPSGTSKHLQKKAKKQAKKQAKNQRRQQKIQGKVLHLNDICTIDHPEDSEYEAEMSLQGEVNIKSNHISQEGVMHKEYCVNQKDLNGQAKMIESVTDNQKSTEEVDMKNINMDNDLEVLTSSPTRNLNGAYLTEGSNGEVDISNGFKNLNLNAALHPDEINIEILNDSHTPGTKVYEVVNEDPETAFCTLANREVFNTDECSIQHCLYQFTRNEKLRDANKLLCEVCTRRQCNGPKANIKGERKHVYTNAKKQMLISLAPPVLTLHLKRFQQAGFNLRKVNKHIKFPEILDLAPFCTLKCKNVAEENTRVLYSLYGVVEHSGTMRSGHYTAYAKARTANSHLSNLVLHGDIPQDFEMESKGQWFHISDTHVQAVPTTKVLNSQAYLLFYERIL
# T1: TRIB2 GFP-fusion protein (human) (UniProt Q92519)
# T1 sequence: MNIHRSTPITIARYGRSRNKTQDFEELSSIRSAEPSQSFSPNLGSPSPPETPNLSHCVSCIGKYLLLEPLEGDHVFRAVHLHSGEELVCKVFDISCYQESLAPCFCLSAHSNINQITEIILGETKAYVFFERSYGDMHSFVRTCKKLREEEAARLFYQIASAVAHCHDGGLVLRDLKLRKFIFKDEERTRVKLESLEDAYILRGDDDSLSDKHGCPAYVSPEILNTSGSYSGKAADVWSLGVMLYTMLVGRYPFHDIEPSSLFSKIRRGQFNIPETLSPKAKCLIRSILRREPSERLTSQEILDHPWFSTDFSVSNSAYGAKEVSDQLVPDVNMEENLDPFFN
# T2: TRIB1 GFP-fusion protein (human) (UniProt Q96RU8)
# T2 sequence: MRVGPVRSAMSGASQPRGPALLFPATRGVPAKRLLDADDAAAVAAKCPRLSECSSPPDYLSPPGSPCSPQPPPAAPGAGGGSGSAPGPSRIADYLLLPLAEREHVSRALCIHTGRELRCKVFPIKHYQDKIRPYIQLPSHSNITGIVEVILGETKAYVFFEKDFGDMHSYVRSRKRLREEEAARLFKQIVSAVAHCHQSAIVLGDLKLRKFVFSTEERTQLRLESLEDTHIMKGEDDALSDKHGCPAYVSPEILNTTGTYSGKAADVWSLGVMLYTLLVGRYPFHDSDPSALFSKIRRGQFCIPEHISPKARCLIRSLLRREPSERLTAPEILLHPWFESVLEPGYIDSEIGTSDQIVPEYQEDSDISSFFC
# T3: TRIB1-tGFP (human) (UniProt Q96RU8)
# T3 sequence: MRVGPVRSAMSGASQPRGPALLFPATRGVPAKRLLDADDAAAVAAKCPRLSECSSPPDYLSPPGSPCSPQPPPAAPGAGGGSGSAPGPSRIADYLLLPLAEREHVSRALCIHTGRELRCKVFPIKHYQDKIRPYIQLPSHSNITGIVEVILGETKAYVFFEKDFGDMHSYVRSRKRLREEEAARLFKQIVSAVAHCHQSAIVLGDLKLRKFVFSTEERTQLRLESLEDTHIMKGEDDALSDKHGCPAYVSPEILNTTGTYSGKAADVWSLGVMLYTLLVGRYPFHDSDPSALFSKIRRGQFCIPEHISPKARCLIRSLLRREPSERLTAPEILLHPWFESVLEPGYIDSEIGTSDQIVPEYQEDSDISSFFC
# Key:
# [1] = molecular target: TRIB3-ΔN-terminal (human) (UniProt Q96RU7); experiment: affinity purification with mass spectrometry; GFP-fusion bait from lysate of transfected HEK293T cells on GFP-Trap beads, 2 h at 4 °C; lysis buffer 50 mM Tris pH 8.0, 1 mM EDTA, 0.1% NP40, 250 mM NaCl, 10% glycerol; on-bead digestion, LC-MS, label-free, against GFP control (or mutant against mutant or wild type)
# [2] = molecular target: TRIB3-ΔC-terminal (human) (UniProt Q96RU7); experiment: as above
# [3] = molecular target: T1, TRIB2 GFP-fusion protein (human); experiment: as above
# [4] = molecular target: T2, TRIB1 GFP-fusion protein (human); experiment: as above
# TRIB1-tGFP (human) = molecular target: T3, TRIB1-tGFP (human); experiment: affinity purification with mass spectrometry; tGFP-fusion bait from lysate of stable MCF7 cells induced with 2 μg/mL doxycycline for 24 h, on turboGFP-Trap beads; LC-MS, label-free, against tGFP control
binding [1],binding [2],Molecule,other results
binds,,DNA Damage 1 Homolog 2 (from UniProt Q5TDH0 1-399),
no binding,binds,E1A Binding Protein P300 (from UniProt Q09472 1-2414),
no binding,binds,SPEN Family Transcriptional Repressor (from UniProt Q96T58 1-3664),
no binding,binds,"Zinc Finger And BTB Domain 1 (protein, UniProt Q9Y2K1 1-713) MAKPSHSSYVLQQLNNQREWGFLCDCCIAIDDIYFQAHKAVLAACSSYFRMFFMNHQHSTAQLNLSNMKISAECFDLILQFMYLGKIMTAPSSFEQFKVAMNYLQLYNVPDCLEDIQDADCSSSKCSSSASSKQNSKMIFGVRMYEDTVARNGNEANRWCAEPSSTVNTPHNREADEESLQLGNFPEPLFDVCKKSSVSKLSTPKERVSRRFGRSFTCDSCGFGFSCEKLLDEHVLTCTNRHLYQNTRSYHRIVDIRDGKDSNIKAEFGEKDSSKTFSAQTDKYRGDTSQAADDSASTTGSRKSSTVESEIASEEKSRAAERKRIIIKMEPEDIPTDELKDFNIIKVTDKDCNESTDNDELEDEPEEPFYRYYVEEDVSIKKSGRKTLKPRMSVSADERGGLENMRPPNNSSPVQEDAENASCELCGLTITEEDLSSHYLAKHIENICACGKCGQILVKGRQLQEHAQRCGEPQDLTMNGLGNTEEKMDLEENPDEQSEIRDMFVEMLDDFRDNHYQINSIQKKQLFKHSACPFRCPNCGQRFETENLVVEHMSSCLDQDMFKSAIMEENERDHRRKHFCNLCGKGFYQRCHLREHYTVHTKEKQFVCQTCGKQFLRERQLRLHNDMHKGMARYVCSICDQGNFRKHDHVRHMISHLSAGETICQVCFQIFPNNEQLEQHMDVHLYTCGICGAKFNLRKDMRSHYNAKHLKRT",

# The remaining lines, values behind:
Molecule,binding [1],binding [2],other results
Dedicator of Cytokinases 11 (from UniProt Q5JSL3 1-2073),binds,,
Ubiquitin Protein Ligase E3 Component N-Recognin 2 (from UniProt Q8IWV8 1-1755),binds,,
Ubiquitin Specific Peptidase 16 (from UniProt Q9Y5T5 1-823),binds,,
"Nucleus Accumbens Associated 1 (protein, UniProt Q96RE7 1-527) MAQTLQMEIPNFGNSILECLNEQRLQGLYCDVSVVVKGHAFKAHRAVLAASSSYFRDLFNNSRSAVVELPAAVQPQSFQQILSFCYTGRLSMNVGDQFLLMYTAGFLQIQEIMEKGTEFFLKVSSPSCDSQGLHAEEAPSSEPQSPVAQTSGWPACSTPLPLVSRVKTEQQESDSVQCMPVAKRLWDSGQKEAGGGGNGSRKMAKFSTPDLAANRPHQPPPPQQAPVVAAAQPAVAAGAGQPAGGVAAAGGVVSGPSTSERTSPGTSSAYTSDSPGSYHNEEDEEEDGGEEGMDEQYRQICNMYTMYSMMNVGQTAEKVEALPEQVAPESRNRIRVRQDLASLPAELINQIGNRCHPKLYDEGDPSEKLELVTGTNVYITRAQLMNCHVSAGTRHKVLLRRLLASFFDRNTLANSCGTGIRSSTNDPRRKPLDSRVLHAVKYYCQNFAPNFKESEMNAIAADMCTNARRVVRKSWMPKVKVLKAEDDAYTTFISETGKIEPDMMGVEHGFETASHEGEAGPSAEALQ",,binds,
"Gen1 Holliday Junction 5′ Flap Endonuclease (protein, UniProt Q17RS7 1-908) MGVNDLWQILEPVKQHIPLRNLGGKTIAVDLSLWVCEAQTVKKMMGSVMKPHLRNLFFRISYLTQMDVKLVFVMEGEPPKLKADVISKRNQSRYGSSGKSWSQKTGRSHFKSVLRECLHMLECLGIPWVQAAGEAEAMCAYLNAGGHVDGCLTNDGDTFLYGAQTVYRNFTMNTKDPHVDCYTMSSIKSKLGLDRDALVGLAILLGCDYLPKGVPGVGKEQALKLIQILKGQSLLQRFNRWNETSCNSSPQLLVTKKLAHCSVCSHPGSPKDHERNGCRLCKSDKYCEPHDYEYCCPCEWHRTEHDRQLSEVENNIKKKACCCEGFPFHEVIQEFLLNKDKLVKVIRYQRPDLLLFQRFTLEKMEWPNHYACEKLLVLLTHYDMIERKLGSRNSNQLQPIRIVKTRIRNGVHCFEIEWEKPEHYAMEDKQHGEFALLTIEEESLFEAAYPEIVAVYQKQKLEIKGKKQKRIKPKENNLPEPDEVMSFQSHMTLKPTCEIFHKQNSKLNSGISPDPTLPQESISASLNSLLLPKNTPCLNAQEQFMSSLRPLAIQQIKAVSKSLISESSQPNTSSHNISVIADLHLSTIDWEGTSFSNSPAIQRNTFSHDLKSEVESELSAIPDGFENIPEQLSCESERYTANIKKVLDEDSDGISPEEHLLSGITDLCLQDLPLKERIFTKLSYPQDNLQPDVNLKTLSILSVKESCIANSGSDCTSHLSKDLPGIPLQNESRDSKILKGDQLLQEDYKVNTSVPYSVSNTVVKTCNVRPPNTALDHSRKVDMQTTRKILMKKSVCLDRHSSDEQSAPVFGKAKYTTQRMKHSSQKHNSSHFKESGHNKLSSPKIHIKETEQCVRSYETAENEESCFPDSTKSSLSSLQCHKKENNSGTCLDSPLPLRQRLKLRFQST",,binds,
"Serine/Threonine Kinase 40 (protein, UniProt Q8N2I9 1-435) MKRRASDRGAGETSARAKALGSGISGNNAKRAGPFILGPRLGNSPVPSIVQCLARKDGTDDFYQLKILTLEERGDQGIESQEERQGKMLLHTEYSLLSLLHTQDGVVHHHGLFQDRTCEIVEDTESSRMVKKMKKRICLVLDCLCAHDFSDKTADLINLQHYVIKEKRLSERETVVIFYDVVRVVEALHQKNIVHRDLKLGNMVLNKRTHRITITNFCLGKHLVSEGDLLKDQRGSPAYISPDVLSGRPYRGKPSDMWALGVVLFTMLYGQFPFYDSIPQELFRKIKAAEYTIPEDGRVSENTVCLIRKLLVLDPQQRLAAADVLEALSAIIASWQSLSSLSGPLQVVPDIDDQMSNADSSQEAKVTEECSQYEFENYMRQQLLLAEEKSSIHDARSWVPKRQFGSAPPVRRLGHDAQPMTSLDTAILAQRYLRK",binds,,binding [3]: binds; binding [4]: binds; binding (TRIB1-tGFP (human)): binds

# These are yes or no findings as the source states them, for the method shown. In cells and extracts the contact can be indirect. A yes stands for co-enrichment or nearness to the bait. Other partners may have been found. For some of these results: A no says only that the protein was not detected with the bait. For some of these results: Tags and fused reporters may be left off the sequences shown.
